At least one peptide structure holds a part that was inferred or is arguable (an end, a ring closure or a residue). Bridge positions count the residues as written; N and C are the ends. Square brackets hold non-standard residues; d marks the D form. Peptide text beside a SMILES is read from it. Mpa = O=C(O)CCS
Key:
[1] = test system: cultured rat pituitary cells; assay: in vitro inhibition of growth hormone secretion by cultured rat pituitary cells (radioimmunoassay); assay type: cell-based; conditions: three hours at 37° C in Eagles medium, control 441±12
Procedure: The activity of the undecapeptide of this invention was established in both in vitro and in vivo testing procedures, employing modifications of the techniques disclosed by Penso et al., Tissue Culture in Biological Research, Elsevier, 1963, p. 98; Berson et al., Metabolism, 13, 1135(1964).
The in vitro tests were conducted by covering cultured rat pituitary cells contained in petri dishes with five milliliter portions of the undecapeptide, as its diacetate salt, in Eagles medium for three hours at 37° C. Three Petri dishes were employed for each solution concentration. The amount of growth hormone produced by the cultured pituitary cells is then compared with growth hormone produced by non-treated cells prepared in identical manner, via growth hormone radioimmunoassay. The difference between the growth hormone produced by treated and non-treated pituitary cells establishes the amount of inhibition by the compound under study.
The cultured pituitary cells are prepared by excising and mincing rat pituitary glands followed by enzymatic separation of the cells (collagenase and hyaluronidase) and culture on synthetic nutrient media. When the cells attach themselves to the bottom of the plastic petri dish and cover the nutrient surface, they are washed with Eagles medium containing only inorganic salts, glucose and antibiotics in which state they are ready for use as above described.
The activity of the undecapeptide of this invention was compared in vitro with somatostatin with the following results in which the concentration valves given are in nanograms/milliliter: […]

male rats = assay: in vivo growth hormone in blood plasma of Nembutal-injected male rats (radioimmunoassay); set-up: species or system rat; conditions: 500 ug subcutaneously in 80 percent PEG 400, rats sacrificed after fifteen minutes; seven rats; control 176.8 ± 28 (p = <0.05)

**Q.** What does the source list for `C[C@@H](O)[C@@H]1NC(=O)[C@H](Cc2ccccc2)NC(=O)[C@H]([C@@H](C)O)NC(=O)[C@H](CCCCN)NC(=O)[C@H](Cc2c[nH]c3ccccc23)NC(=O)[C@H](Cc2ccccc2)NC(=O)[C@H](Cc2ccccc2)NC(=O)[C@H](CC(N)=O)NC(=O)[C@H](CCCCN)NC(=O)CCSSC[C@@H](C(=O)O)NC(=O)[C@H](CO)NC1=O` [des-Ala-Gly-des-amino-Cys-SRIF-diacetate, N^α -(3-Mercaptopropionyl)-L-Lysyl-L-Asparginyl-L-Phenylalanyl-L-Phenylalanyl-L-Tryptophyl-L-Lysyl-L-Theronyl-L-Phenylalanyl-L-Threonyl-L-Seryl-L-Cysteinyl Cyclic (1-11) Disulfide] ([Mpa]KNFFWKTFTSC-OH; disulfide 1-12)?
**A.** Growth Hormone Secreted ([1]; compound concentration 1 ng/ml): 320 ± 30 ng/mL; Growth Hormone Secreted ([1]; compound concentration 10 ng/ml): 346 ± 25 ng/mL; Growth Hormone Secreted ([1]; compound concentration 100 ng/ml): 321 ± 16 ng/mL; Growth Hormone Secreted ([1]; compound concentration 1000 ng/ml): 312 ± 23 ng/mL; average growth hormone concentration per milliliter of plasma (male rats): 63.3 ± 8.8 × 10^-9 grams

Reference: patent US4113714A, “[Des-Ala^1, Gly^2 -desamino-Cys^3 ]somatostatin” (American Home Products Corporation, priority 1975, dated 1978)
